Measured values as given in US20220074941A1, “HSP90 COMBINATION THERAPY” (Sloan-Kettering Institute for Cancer Research, priority 2011, published 2022).
No constants are given. Whether binding was seen depends on the method and setting. For some assays here: In cells and extracts the contact can be indirect. Some binding calls cover weakened binding; strength is not graded here.

The chains behind the UniProt entries cited, without tags or fusion partners. Where a name states a change or a piece, a line headed by the entry shows the natural chain unless it says otherwise. Residues count along the entry.
UniProt Q05397, residues 2-1052: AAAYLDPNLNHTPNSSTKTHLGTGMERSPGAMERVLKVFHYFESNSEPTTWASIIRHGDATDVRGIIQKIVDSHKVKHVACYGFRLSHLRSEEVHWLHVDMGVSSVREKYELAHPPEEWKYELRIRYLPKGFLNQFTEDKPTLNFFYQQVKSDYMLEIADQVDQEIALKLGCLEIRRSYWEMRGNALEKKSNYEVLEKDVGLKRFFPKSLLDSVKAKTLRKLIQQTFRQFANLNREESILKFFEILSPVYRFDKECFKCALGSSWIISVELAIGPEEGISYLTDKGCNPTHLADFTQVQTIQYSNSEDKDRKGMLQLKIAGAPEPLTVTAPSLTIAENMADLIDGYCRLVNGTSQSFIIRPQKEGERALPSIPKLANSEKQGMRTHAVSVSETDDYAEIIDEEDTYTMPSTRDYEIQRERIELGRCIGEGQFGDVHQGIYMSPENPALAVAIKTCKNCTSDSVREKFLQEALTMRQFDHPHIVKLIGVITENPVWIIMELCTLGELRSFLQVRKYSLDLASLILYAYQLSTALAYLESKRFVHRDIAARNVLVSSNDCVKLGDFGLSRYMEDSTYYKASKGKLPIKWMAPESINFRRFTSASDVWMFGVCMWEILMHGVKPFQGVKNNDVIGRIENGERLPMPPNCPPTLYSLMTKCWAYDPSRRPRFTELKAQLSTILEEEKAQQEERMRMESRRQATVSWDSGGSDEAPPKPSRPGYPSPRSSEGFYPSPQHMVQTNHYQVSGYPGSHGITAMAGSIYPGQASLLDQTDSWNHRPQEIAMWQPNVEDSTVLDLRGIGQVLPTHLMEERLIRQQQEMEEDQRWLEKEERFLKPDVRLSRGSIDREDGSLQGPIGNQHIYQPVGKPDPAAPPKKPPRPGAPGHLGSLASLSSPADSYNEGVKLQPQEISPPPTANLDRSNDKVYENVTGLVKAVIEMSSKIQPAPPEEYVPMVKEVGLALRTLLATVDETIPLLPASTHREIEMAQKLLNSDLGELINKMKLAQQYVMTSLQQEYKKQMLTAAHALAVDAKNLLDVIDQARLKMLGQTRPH
UniProt P46109: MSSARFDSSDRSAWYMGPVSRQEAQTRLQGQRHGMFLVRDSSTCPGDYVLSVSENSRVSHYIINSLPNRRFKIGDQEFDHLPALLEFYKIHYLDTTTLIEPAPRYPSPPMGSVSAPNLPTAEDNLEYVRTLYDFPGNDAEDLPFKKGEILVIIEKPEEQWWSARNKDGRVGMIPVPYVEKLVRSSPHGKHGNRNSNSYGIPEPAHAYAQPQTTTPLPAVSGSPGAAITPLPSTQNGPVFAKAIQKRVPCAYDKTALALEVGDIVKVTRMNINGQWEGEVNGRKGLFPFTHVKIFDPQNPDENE
UniProt P11274: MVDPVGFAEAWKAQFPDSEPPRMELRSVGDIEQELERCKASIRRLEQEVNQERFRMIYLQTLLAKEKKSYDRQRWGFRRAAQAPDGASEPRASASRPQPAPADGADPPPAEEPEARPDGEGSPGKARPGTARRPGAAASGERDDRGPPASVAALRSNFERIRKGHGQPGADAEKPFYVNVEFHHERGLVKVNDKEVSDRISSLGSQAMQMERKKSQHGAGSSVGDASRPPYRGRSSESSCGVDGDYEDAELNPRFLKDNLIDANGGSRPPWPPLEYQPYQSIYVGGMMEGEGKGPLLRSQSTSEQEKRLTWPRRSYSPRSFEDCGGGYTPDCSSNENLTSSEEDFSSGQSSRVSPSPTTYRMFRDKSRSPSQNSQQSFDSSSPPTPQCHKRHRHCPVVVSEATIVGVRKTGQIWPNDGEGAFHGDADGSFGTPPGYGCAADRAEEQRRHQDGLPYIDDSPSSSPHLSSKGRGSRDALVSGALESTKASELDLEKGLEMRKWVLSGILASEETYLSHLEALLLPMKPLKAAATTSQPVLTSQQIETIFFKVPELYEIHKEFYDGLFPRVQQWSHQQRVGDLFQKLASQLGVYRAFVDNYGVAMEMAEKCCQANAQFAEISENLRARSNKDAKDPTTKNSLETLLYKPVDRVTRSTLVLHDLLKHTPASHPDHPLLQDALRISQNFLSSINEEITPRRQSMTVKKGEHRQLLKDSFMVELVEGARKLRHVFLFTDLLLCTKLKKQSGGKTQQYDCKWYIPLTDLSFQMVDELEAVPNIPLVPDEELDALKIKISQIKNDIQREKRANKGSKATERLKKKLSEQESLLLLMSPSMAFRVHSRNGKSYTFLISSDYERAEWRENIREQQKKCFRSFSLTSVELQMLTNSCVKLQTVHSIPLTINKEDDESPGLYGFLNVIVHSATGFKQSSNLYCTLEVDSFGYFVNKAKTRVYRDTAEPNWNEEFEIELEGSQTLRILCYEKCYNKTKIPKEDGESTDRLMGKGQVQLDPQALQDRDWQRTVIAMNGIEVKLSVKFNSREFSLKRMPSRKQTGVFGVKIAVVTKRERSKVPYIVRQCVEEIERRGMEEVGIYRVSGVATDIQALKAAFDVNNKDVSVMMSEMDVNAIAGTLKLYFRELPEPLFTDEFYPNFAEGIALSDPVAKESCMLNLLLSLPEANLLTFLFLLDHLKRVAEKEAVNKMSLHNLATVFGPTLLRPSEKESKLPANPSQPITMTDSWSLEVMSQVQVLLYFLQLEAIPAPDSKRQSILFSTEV
UniProt Q92608: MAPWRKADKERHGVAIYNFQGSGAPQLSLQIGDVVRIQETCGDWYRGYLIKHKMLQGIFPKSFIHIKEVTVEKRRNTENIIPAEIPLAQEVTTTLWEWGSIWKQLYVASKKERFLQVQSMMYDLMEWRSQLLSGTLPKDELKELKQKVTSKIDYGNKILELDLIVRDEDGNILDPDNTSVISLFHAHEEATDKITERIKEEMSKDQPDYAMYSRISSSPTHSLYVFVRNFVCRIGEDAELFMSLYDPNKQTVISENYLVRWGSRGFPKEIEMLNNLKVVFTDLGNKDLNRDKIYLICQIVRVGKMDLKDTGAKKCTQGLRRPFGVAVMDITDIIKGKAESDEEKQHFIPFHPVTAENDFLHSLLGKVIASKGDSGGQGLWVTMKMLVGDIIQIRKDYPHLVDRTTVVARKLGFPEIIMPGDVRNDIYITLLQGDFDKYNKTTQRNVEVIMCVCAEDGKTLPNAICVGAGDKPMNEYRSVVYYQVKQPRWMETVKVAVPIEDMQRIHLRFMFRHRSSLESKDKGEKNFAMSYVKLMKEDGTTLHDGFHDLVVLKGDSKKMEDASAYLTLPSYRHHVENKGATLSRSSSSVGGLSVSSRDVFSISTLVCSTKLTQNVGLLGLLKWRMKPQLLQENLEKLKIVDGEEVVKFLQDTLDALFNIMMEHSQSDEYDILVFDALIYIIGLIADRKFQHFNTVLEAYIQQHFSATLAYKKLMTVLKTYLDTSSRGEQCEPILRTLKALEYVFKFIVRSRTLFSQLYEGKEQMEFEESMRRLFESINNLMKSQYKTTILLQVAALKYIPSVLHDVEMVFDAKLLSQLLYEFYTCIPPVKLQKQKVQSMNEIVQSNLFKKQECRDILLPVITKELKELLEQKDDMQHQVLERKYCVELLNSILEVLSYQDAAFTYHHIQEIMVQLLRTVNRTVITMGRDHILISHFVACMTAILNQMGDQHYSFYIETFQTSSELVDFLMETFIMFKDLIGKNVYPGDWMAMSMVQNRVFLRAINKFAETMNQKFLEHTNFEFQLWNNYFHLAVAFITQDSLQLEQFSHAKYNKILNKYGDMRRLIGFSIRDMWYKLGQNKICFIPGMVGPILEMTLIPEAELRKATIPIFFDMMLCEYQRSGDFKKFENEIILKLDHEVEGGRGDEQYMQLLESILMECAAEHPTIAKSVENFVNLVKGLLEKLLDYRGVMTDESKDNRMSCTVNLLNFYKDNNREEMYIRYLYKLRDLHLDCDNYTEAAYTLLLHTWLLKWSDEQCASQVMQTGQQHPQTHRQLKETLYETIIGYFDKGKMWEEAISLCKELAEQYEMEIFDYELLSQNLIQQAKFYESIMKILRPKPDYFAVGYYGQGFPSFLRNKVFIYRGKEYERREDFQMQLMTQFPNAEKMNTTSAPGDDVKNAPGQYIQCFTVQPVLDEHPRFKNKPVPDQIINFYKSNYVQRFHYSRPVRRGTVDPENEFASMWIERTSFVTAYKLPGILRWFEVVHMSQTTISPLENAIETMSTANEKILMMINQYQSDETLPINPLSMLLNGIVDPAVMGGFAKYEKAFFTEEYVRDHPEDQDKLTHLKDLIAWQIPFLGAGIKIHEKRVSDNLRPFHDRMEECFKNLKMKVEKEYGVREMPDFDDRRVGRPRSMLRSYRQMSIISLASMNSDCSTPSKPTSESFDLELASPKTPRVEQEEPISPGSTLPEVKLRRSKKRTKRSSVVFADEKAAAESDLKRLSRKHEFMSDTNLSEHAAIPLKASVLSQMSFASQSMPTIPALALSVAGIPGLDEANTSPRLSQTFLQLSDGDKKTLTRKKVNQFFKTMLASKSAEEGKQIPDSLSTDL
UniProt P42229: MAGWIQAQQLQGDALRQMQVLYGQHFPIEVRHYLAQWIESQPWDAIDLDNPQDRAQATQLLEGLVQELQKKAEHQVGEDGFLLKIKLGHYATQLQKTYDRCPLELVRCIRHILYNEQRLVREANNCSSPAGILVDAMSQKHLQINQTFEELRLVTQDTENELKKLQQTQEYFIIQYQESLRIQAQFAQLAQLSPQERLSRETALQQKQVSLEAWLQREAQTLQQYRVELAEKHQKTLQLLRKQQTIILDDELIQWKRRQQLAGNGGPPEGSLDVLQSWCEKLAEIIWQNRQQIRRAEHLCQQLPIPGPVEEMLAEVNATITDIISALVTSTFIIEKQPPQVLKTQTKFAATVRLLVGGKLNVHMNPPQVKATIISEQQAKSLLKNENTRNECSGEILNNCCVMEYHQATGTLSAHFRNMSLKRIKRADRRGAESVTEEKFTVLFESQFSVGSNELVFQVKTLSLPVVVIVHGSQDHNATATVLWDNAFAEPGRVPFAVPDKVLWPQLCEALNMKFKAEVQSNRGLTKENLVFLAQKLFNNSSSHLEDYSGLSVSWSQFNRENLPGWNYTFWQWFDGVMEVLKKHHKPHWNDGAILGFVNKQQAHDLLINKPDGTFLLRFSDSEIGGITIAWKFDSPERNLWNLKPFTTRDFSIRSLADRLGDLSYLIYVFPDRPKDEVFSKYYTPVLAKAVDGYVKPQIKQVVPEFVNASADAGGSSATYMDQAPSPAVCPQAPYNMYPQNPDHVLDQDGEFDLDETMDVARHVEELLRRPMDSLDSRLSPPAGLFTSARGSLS
UniProt Q06187, residues 2-659: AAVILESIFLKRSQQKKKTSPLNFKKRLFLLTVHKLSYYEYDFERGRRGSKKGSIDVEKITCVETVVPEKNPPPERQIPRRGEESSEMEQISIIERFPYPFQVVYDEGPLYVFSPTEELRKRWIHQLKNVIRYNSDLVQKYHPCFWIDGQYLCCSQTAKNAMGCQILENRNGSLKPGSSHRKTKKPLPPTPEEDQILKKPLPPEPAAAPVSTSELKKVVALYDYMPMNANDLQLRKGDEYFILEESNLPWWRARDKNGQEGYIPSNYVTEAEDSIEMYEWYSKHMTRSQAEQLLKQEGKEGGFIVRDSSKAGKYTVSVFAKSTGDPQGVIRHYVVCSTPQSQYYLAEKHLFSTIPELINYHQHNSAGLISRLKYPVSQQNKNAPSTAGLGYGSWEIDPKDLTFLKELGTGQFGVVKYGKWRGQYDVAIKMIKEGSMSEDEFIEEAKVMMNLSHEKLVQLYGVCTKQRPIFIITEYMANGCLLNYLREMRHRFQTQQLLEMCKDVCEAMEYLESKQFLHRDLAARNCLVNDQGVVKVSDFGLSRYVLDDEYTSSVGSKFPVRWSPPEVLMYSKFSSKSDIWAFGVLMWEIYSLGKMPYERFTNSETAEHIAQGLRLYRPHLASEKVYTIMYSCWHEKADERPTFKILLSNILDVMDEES

Experiments:
FAK (human) [1] = target: FAK (human) (UniProt Q05397); experiment: PU-H71-bead chemical precipitation from K562 extract; nano LC-MS/MS, Western blot
GRB2 (human) = GRB2 (human) (UniProt P62993); experiment: PU-H71-bead chemical precipitation from K562 extract; MS, Western blot
EPS15 (human) = target: T1, EPS15 (human) (UniProt P42566); experiment: as above
T1 sequence (looked up): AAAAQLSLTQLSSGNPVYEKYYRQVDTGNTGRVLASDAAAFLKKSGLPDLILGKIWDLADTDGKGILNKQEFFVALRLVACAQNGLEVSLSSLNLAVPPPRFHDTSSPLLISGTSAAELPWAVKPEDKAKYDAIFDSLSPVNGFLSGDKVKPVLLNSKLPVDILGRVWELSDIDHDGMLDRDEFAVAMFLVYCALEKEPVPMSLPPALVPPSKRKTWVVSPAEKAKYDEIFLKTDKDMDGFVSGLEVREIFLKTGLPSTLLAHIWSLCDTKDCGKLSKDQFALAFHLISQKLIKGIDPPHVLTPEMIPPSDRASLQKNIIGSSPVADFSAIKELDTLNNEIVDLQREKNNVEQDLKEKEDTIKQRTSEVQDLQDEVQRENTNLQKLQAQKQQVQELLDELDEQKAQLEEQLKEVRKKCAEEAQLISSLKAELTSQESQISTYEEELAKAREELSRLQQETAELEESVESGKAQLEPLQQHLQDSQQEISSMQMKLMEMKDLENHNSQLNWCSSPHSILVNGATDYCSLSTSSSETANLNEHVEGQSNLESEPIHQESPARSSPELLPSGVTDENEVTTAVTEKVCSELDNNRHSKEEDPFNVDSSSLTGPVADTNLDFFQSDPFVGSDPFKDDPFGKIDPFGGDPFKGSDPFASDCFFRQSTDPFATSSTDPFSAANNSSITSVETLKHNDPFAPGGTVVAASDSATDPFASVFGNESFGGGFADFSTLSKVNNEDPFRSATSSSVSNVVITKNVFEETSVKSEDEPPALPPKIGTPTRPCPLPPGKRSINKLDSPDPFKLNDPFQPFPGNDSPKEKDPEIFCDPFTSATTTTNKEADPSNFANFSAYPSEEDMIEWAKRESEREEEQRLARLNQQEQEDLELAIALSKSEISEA

FAK (human) [2] = target: FAK (human) (UniProt Q05397); experiment: as above
PKD2 (or PRKD2) (human) [3] = target: T2, PKD2 (or PRKD2) (human) (UniProt Q9BZL6); experiment: as above
T2 sequence (looked up): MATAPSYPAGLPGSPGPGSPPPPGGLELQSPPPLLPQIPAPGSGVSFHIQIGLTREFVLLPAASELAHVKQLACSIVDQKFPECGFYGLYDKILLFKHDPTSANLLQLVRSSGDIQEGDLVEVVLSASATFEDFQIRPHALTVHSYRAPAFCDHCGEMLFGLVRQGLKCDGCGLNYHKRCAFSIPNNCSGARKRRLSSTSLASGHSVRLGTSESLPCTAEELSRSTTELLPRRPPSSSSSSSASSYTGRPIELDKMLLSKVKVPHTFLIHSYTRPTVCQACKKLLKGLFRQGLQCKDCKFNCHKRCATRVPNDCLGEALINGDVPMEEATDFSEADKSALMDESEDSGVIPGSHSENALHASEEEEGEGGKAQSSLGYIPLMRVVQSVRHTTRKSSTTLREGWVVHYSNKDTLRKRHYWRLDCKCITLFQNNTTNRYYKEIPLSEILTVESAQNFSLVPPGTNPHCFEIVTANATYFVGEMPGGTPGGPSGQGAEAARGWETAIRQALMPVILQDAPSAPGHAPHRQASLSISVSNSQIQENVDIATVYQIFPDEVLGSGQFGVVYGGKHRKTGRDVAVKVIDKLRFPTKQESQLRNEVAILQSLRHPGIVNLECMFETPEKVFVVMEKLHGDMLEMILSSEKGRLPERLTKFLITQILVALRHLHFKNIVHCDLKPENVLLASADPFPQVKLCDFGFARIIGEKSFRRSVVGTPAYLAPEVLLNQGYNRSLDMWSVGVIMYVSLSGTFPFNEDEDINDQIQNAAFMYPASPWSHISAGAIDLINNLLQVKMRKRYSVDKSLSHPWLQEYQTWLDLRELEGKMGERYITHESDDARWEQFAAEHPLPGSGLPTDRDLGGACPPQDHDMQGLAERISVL

CRKL (human) = CRKL (human) (UniProt P46109); experiment: as above
vav (human) [4] = target: T3, vav (human) (UniProt P15498); experiment: as above
T3 sequence (looked up): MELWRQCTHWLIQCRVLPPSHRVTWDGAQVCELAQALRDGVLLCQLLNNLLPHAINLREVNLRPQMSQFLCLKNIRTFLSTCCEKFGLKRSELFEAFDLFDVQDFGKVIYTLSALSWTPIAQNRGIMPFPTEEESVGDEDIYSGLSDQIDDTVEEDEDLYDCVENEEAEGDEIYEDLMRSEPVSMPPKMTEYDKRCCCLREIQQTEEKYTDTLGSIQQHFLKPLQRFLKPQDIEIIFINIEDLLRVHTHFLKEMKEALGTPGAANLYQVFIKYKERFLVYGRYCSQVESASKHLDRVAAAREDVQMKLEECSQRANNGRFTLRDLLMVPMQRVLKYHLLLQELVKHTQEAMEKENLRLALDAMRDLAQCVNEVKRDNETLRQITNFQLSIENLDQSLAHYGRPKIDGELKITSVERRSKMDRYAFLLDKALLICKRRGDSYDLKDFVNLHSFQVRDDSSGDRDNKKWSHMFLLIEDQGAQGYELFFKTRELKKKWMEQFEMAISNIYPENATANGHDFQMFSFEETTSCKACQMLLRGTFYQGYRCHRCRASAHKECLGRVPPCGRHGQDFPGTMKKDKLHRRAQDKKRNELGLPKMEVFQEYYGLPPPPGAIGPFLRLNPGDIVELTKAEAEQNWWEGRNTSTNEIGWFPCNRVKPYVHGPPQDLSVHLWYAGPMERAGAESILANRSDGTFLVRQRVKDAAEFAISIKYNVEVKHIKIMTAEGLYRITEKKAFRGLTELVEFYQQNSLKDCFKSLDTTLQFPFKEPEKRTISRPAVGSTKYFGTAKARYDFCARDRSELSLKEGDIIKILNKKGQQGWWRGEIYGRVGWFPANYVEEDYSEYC

Bcr-Abl (human) [5] = target: T4, Bcr-Abl (human) (UniProt P11274+P00519); experiment: as above
DOCK (human) = DOCK (human) (UniProt Q92608); experiment: as above
p-STAT5 (human) = p-STAT5 (human) (UniProt P42229); experiment: sequential PU-H71-bead chemical precipitation from K562 cells, pull-downs and remaining supernatant by Western blot
STAT5 (human) [6] = target: STAT5 (human) (UniProt P42229); experiment: PU-H71-bead chemical precipitation from K562 versus Mia-PaCa-2 extracts; nano LC-MS/MS
STAT5 (human) [7] = target: STAT5 (human) (UniProt P42229); experiment: summary legend (FIG. 8h) of the K562 STAT5 experiments
[8] = target: Bruton agammaglobulinemia tyrosine kinase (BTK) (human) (UniProt Q06187); experiment: PU-H71-bead chemical precipitation from DLBCL cell lysates, Western blot
[9] = target: T5, HIP (Hsc70-interacting protein) (human) (UniProt P50502); experiment: PU-H71-bead chemical precipitation from K562 extract, Western blot
T5 sequence (looked up): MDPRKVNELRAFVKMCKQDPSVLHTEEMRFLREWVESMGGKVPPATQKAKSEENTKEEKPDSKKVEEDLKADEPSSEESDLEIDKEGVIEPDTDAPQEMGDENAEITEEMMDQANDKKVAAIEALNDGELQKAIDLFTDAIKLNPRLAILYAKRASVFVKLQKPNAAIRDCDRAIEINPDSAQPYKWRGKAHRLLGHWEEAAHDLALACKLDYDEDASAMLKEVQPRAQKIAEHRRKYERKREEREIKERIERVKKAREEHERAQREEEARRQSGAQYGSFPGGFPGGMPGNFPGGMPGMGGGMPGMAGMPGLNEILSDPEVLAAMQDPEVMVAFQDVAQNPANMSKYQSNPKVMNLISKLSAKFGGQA

Bcr-Abl (human) [10] = target: T4, Bcr-Abl (human); experiment: as above
Bcr-Abl (human) [11] = target: T4, Bcr-Abl (human); experiment: SNX-, NVP- and GM-bead chemical precipitation from K562 extract, Western blot
IGF-IR [12] = target: IGF-IR (UniProt P08069); experiment: PU-H71-bead chemical precipitation from MDA-MB-468 extract, Western blot
c-Kit [13] = target: c-Kit (UniProt P10721); experiment: as above
[14] = target: mutant B-Raf expressed in SKMel28 melanoma cells (UniProt P15056); experiment: co-immunoprecipitation with H9010 and PU-/GM-bead precipitation from SKMel28 extract, Western blot
HER3 = HER3 (UniProt P21860); experiment: PU-H71- and GM-bead precipitation of Hsp90 complexes from MDA-MB-468 extract, Western blot
[15] = target: mutant B-Raf expressed in SKMel28 melanoma cells (UniProt P15056); experiment: PU-H71- and GM-bead chemical precipitation from SKMel28 extract, Western blot
[16] = target: Bruton agammaglobulinemia tyrosine kinase (BTK) (human) (UniProt Q06187); experiment: PU-H71-bead chemical precipitation from K562 and primary CML extracts; nano LC-MS/MS, Western blot
PKD2 (or PRKD2) (human) [17] = target: T2, PKD2 (or PRKD2) (human); experiment: as above
vav (human) [18] = target: T3, vav (human); experiment: as above
STAT5 (human) [19] = target: STAT5 (human) (UniProt P42229); experiment: as above
Bcr-Abl (human) [20] = target: T4, Bcr-Abl (human); experiment: PU-H71-bead chemical precipitation from K562 extract, nano LC-MS/MS
c-Abl (human) [21] = target: c-Abl (human) (UniProt P00519); experiment: co-immunoprecipitation with H9010 from PU-bead-depleted K562 extract, Western blot
c-Abl (human) [22] = target: c-Abl (human) (UniProt P00519); experiment: immuno- and chemical precipitation from K562 extract, Western blot
Bcr-Abl (human) [23] = target: T4, Bcr-Abl (human); experiment: as above
[24] = target: WT B-Raf expressed in CCD18Co normal colon fibroblasts (UniProt P15056); experiment: co-immunoprecipitation with H9010 from CCD18Co extract, Western blot
c-Abl (human) [25] = target: c-Abl (human) (UniProt P00519); experiment: sequential chemical and immuno-precipitation from K562 extract, Western blot
Bcr-Abl (human) [26] = target: T4, Bcr-Abl (human); experiment: as above
c-Abl (human) [27] = target: c-Abl (human) (UniProt P00519); experiment: co-immunoprecipitation with H9010 from K562 extract, Western blot
Bcr-Abl (human) [28] = target: T4, Bcr-Abl (human); experiment: as above
IGF-IR [29] = target: IGF-IR (UniProt P08069); experiment: PU-H71-bead chemical precipitation from MDA-MB-468 extract (300 µg), Western blot
c-Kit [30] = target: c-Kit (UniProt P10721); experiment: as above
c-Abl (human) [31] = target: c-Abl (human) (UniProt P00519); experiment: NVP-bead chemical precipitation from K562 extract, Western blot
[32] = target: Bruton agammaglobulinemia tyrosine kinase (BTK) (human) (UniProt Q06187); experiment: PU-H71-bead chemical precipitation from OCI-Ly1 and OCI-Ly7 extracts, Western blot

Measured: binding

heat shock protein 90 (Hsp90), endogenous, in human cancer and normal cell extracts (from UniProt P07900 2-732)
binds: all assays above
